This assay addresses Ezrin (EZR) (human (endogenous in PC cells)) (UniProt P15311). Put plainly: co-IP; PC cells lysed in RIPA; supernatant incubated with primary antibody (or IgG) and Protein G agarose; Western blot; which protein was precipitated not given. On the technique in general: A western blot detects proteins with antibodies after separation by electrophoresis.

Amino acid sequences for entries named in this document (tags omitted).
UniProt P15311: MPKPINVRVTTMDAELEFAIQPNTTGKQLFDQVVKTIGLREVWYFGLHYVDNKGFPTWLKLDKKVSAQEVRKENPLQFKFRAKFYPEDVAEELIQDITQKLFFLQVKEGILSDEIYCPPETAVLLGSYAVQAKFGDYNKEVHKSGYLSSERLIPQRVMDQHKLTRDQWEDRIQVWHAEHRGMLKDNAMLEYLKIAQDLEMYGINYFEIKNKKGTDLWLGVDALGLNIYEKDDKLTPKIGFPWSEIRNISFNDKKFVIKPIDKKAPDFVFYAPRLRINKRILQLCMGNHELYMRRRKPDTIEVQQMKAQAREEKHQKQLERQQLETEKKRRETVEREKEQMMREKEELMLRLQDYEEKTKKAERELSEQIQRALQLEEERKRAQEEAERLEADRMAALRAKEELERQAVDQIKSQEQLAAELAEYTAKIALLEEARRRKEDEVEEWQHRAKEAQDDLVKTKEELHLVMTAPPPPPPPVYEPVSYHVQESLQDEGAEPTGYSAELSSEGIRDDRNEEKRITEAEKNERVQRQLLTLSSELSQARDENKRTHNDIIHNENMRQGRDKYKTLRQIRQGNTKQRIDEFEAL
UniProt Q05397: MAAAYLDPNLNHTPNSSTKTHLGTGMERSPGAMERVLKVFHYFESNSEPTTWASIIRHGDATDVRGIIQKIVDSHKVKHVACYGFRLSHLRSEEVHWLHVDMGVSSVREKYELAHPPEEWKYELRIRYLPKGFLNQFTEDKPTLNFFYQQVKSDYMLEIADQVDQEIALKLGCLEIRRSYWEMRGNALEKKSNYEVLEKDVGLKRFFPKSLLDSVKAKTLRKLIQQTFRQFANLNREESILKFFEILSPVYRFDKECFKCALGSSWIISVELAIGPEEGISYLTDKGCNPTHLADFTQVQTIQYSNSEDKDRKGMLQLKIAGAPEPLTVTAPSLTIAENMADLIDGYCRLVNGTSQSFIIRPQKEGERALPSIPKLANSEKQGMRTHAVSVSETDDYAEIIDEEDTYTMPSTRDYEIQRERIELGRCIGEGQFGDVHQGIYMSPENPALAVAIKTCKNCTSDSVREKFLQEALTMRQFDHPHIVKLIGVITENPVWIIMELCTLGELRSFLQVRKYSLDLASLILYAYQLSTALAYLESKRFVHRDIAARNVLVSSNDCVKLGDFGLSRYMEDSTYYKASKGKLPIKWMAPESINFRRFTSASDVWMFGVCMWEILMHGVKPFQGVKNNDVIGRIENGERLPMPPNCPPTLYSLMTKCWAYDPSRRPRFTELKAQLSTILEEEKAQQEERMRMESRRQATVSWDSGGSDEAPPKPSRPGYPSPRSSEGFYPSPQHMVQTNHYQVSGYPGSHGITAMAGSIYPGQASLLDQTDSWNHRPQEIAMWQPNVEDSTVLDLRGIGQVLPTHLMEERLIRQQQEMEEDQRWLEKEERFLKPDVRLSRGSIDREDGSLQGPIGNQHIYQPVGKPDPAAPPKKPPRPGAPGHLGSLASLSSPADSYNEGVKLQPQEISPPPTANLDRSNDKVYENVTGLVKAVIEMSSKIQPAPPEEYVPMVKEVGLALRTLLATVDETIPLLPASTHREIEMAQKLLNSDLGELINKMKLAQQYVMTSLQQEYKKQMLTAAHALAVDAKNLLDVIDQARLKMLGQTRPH

Results are given in words; binding and its absence hold for the method and conditions named. Binding seen in cells or lysates may run through a third protein. Some entries that bind do so weakly or less than the wild type.

From article PMC8502343 come the findings set out here.

For the substance FAK (from UniProt Q05397 1-1052), the binding entry was “binds”.
